Results reported in US20200172626A1.
No constants are given. Whether binding was seen depends on the method and setting. Some results given as binding are weak or reduced against the parent protein; the word gives no strength.

By UniProt entry, the sequences of proteins in these tests, tags left out. Where a name states a change or a piece, a line headed by the entry shows the natural chain unless it says otherwise.
UniProt Q07011: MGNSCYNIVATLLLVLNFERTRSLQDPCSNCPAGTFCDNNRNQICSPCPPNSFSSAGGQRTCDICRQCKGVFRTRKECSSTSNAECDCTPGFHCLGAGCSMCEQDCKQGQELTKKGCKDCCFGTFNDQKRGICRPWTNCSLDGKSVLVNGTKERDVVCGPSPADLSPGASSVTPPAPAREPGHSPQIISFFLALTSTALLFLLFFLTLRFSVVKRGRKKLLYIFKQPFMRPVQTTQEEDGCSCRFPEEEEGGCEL

Columns and labels:
[1] = biological target: histidine-tagged 4-1BB extracellular domain recombinant protein (H4-1BB) (human) (UniProt Q07011); assay: ELISA on plates coated with histidine-tagged recombinant 4-1BB extracellular domain, HRP-labelled anti-human IgG; y axis printed as Absorbance (410nm)
[2] = biological target: human 4-1BB antigen (H4-1BB) (human) (UniProt Q07011); assay: SPR (Biacore 3000, CM5), antibody captured on anti-human IgG, H4-1BB antigen in flow; the numbers stand only in FIG. 5
[3] = biological target: histidine-tagged 4-1BB extracellular domain recombinant protein (H4-1BB) (human) (UniProt Q07011); assay: ELISA on plates coated with histidine-tagged 4-1BB ECD

Measured: binding

B1: 94G1 reference humanized anti-human 4-1BB antibody (antibody, V domains shown)
VH: QVQLQQSGAEVKKPGASVKLSCKASGYTFSSYWMHWVRQAPGQGLEWIGEINPGNGHTNYNEKFKSRATMTRDTSTSTAYMELSSLRSEDSAVYYCARSFTTARAFAYWGQGTLVTVSS
VL: DIVMTQSPAFLSVTPGEKVTITCRASQTISDYLHWYQQKPDQAPKLLIKYASQSISGIPSRFSGSGSGTDFTFTISSLEAEDAATYYCQDGHSFPPTFGQGTKLEIK
binds: [1] | [2] | [3]
